{
  "source": "the supplement of paper PMC8732350",
  "note": "Values joined by “and” are separate entries in the source; they are usually repeats but may differ in a detail not shown here. Equal values may be shown once. Where a name gives a salt, the structure may show the parent alone. ± gives the standard deviation of the averaged measurements. The list shows a part of the results. This data set is noisy: repeats of one test often differ as much as different tests do.",
  "data": [
    {"test_system": "A549", "assay": "surface PD-L1 immunofluorescence intensity relative to IFN-gamma-only control (ratio); higher = more PD-L1 expression", "settings": "10 µM; exposure time 24 h; IFN-gamma 100 ng/mL", "values": [
      {"smiles": "N#Cc1cc(CN2CCC(Nc3ncnc4sc(Cl)cc34)CC2)ccc1F", "surface PD-L1 immunofluorescence intensity": 1.02},
      {"smiles": "C[C@]12CCC(=O)C=C1[C@@H]1C[C@@H]1[C@H]1[C@@H]3[C@@H]4C[C@@H]4[C@@]4(CCC(=O)O4)[C@@]3(C)CC[C@@H]12", "note": "[Drospirenone]", "surface PD-L1 immunofluorescence intensity": 1.02},
      {"smiles": "Nc1cc(N2CCCCC2)nc(N)[n+]1[O-]", "note": "[Minoxidil]", "surface PD-L1 immunofluorescence intensity": "0.953 ± 0.097"},
      {"smiles": "CS(=O)(=O)Nc1c(O)ccc2c1CCCC2C1=NCCN1", "note": "(stereo not given)", "surface PD-L1 immunofluorescence intensity": 1.05},
      {"smiles": "CCCCn1c(=O)c2[nH]c(C34CC5CC(CC3C5)C4)nc2n(CCCO)c1=O", "surface PD-L1 immunofluorescence intensity": 1.1},
      {"smiles": "CC(C)C[C@H](NC(=O)N1CCCCCC1)C(=O)N[C@H](Cc1cn(C)c2ccccc12)C(=O)N[C@H](Cc1ccccn1)C(=O)O", "surface PD-L1 immunofluorescence intensity": 1.01},
      {"smiles": "CC1=C(/C=C/C(C)=C/C=C/C(C)=C\\CO)C(C)(C)CCC1", "note": "[13-cis-Retinol]", "surface PD-L1 immunofluorescence intensity": 0.996},
      {"smiles": "OCCn1cc(-c2cnc3nnn(Cc4ccc5ncccc5c4)c3n2)cn1", "surface PD-L1 immunofluorescence intensity": 0.988},
      {"smiles": "CC1=C(/C=C/C(C)=C/C=C/C(C)=C/CO)C(C)(C)CCC1", "note": "[all-trans-Retinol]", "surface PD-L1 immunofluorescence intensity": 1},
      {"smiles": "O=C(O)c1ccccc1OP(=O)(O)O", "note": "[Fosfosal]", "surface PD-L1 immunofluorescence intensity": 0.966},
      {"smiles": "C/C=C(/C(=C/C)c1ccc(O)cc1)c1ccc(O)cc1", "note": "[Dienestrol]", "surface PD-L1 immunofluorescence intensity": 0.886},
      {"smiles": "Cc1ncc([N+](=O)[O-])n1CC(C)O", "note": "(stereo not given) [Secnidazole]", "surface PD-L1 immunofluorescence intensity": 1.06},
      {"smiles": "O=C(Nc1ccc(S(=O)(=O)Nc2ccccc2Cl)c(Cl)c1)c1ccccn1", "surface PD-L1 immunofluorescence intensity": 0.979},
      {"smiles": "Oc1ccc(-c2nc(-c3ccc(F)cc3)c(-c3ccncc3)[nH]2)cc1", "surface PD-L1 immunofluorescence intensity": "1.14 and 1.01"},
      {"smiles": "CCC(NC(C)C)C(O)c1ccc(O)c2[nH]c(=O)ccc12", "note": "(stereo not given) [Procaterol hydrochloride]", "surface PD-L1 immunofluorescence intensity": 0.927},
      {"smiles": "CCOc1cc(C(=O)Nc2ccc(Cl)c(-c3nc4ccccc4[nH]3)c2)cc(OCC)c1OCC", "surface PD-L1 immunofluorescence intensity": 1.15},
      {"smiles": "CC1(C)S[C@@H]2[C@H](NC(=O)[C@H](N)c3ccccc3)C(=O)N2[C@H]1C(=O)O", "note": "[Ampicillin trihydrate]", "surface PD-L1 immunofluorescence intensity": 0.908},
      {"smiles": "CC1(C)S[C@@H]2[C@H](NC(=O)[C@H](N)c3ccccc3)C(=O)N2[C@H]1C(=O)O", "note": "[Ampicillin sodium]", "surface PD-L1 immunofluorescence intensity": 0.961},
      {"smiles": "C=C[C@H]1CN2CC[C@H]1C[C@H]2[C@H](O)c1ccnc2ccc(OC)cc12", "note": "[Quinine HCl 2H2O]", "surface PD-L1 immunofluorescence intensity": 1.04},
      {"smiles": "O=c1n(CCCN2CCN(c3cccc(Cl)c3)CC2)nc2ccccn12", "note": "[Trazodone hydrochloride]", "surface PD-L1 immunofluorescence intensity": 0.903},
      {"smiles": "O=C(O)c1cc(=O)[nH]c(=O)[nH]1", "note": "[Orotic acid (6-Carboxyuracil)]", "surface PD-L1 immunofluorescence intensity": 1.06},
      {"smiles": "O=c1oc2cc(O)ccc2s1", "note": "[Tioxolone]", "surface PD-L1 immunofluorescence intensity": 0.92},
      {"smiles": "COc1cc2ncnc(Nc3cccc(Cl)c3)c2cc1OC", "note": "[AG-1478 (Tyrphostin AG-1478)]", "surface PD-L1 immunofluorescence intensity": 0.993},
      {"smiles": "CCCCc1ccc2[nH]c(NC(=O)OC)nc2c1", "note": "[Parbendazole]", "surface PD-L1 immunofluorescence intensity": 0.999},
      {"smiles": "Nc1ncnc2c1ncn2C1OC(COP(=O)(O)O)C(O)C1O", "note": "(stereo not given) [Adenosine 5'-monophosphate monohydrate]", "surface PD-L1 immunofluorescence intensity": 1.13},
      {"smiles": "COc1cc2ncnc(-n3nc(-c4ccccn4)nc3N)c2cc1OC", "surface PD-L1 immunofluorescence intensity": 0.993},
      {"smiles": "CCOC(=O)c1cnc2c(cnn2CC)c1NN=C(C)C", "note": "[Etazolate hydrochloride]", "surface PD-L1 immunofluorescence intensity": 0.975},
      {"smiles": "C[C@@H]1C[C@H]2[C@@H]3CCC4=CC(=O)C=C[C@]4(C)[C@@]3(Cl)[C@@H](O)C[C@]2(C)[C@@]1(OC(=O)c1ccco1)C(=O)CCl", "note": "[Mometasone furoate]", "surface PD-L1 immunofluorescence intensity": "0.9 ± 0.041"},
      {"smiles": "CN1CCCN(C(c2ccccc2)c2ccc(Cl)cc2)CC1", "note": "(stereo not given) [Homochlorcyclizine dihydrochloride]", "surface PD-L1 immunofluorescence intensity": 0.92},
      {"smiles": "O=C(O)[C@H](CC(=O)N1C[C@H]2CCCC[C@H]2C1)Cc1ccccc1", "note": "[Mitiglinide calcium]", "surface PD-L1 immunofluorescence intensity": 1.03},
      {"smiles": "C[C@]12CCC3=C4CCC(=O)C=C4CC[C@H]3[C@@H]1CC[C@@]2(O)CC#N", "note": "[Dienogest]", "surface PD-L1 immunofluorescence intensity": 1.03},
      {"smiles": "O=C(O)c1ccccc1Nc1cccc2c1C(=O)c1cccc(Nc3ccccc3C(=O)O)c1C2=O", "surface PD-L1 immunofluorescence intensity": 0.839},
      {"smiles": "NC(=O)c1ccc(I)c([N+](=O)[O-])c1", "note": "[Iniparib (BSI-201)]", "surface PD-L1 immunofluorescence intensity": 1.06},
      {"smiles": "O=C(O)c1cc(/N=N/c2ccc(S(=O)(=O)Nc3ccccn3)cc2)ccc1O", "note": "[Sulfasalazine]", "surface PD-L1 immunofluorescence intensity": 1.05},
      {"smiles": "C=C1c2cccc(O)c2C(O)=C2C(=O)[C@]3(O)C(O)=C(C(N)=O)C(=O)[C@@H](N(C)C)[C@@H]3[C@@H](O)[C@H]12", "note": "[Methacycline HCl (Physiomycine)]", "surface PD-L1 immunofluorescence intensity": 1.06},
      {"smiles": "CC1CCN=C(N)S1", "note": "(stereo not given) [AMT hydrochloride]", "surface PD-L1 immunofluorescence intensity": 1.03},
      {"smiles": "N#C/C(=C\\c1ccc(O)c(O)c1)C(=O)NCCCc1ccccc1", "surface PD-L1 immunofluorescence intensity": 0.989},
      {"smiles": "CN/C(=N\\CCSCc1nc[nH]c1C)NC#N", "note": "[Cimetidine]", "surface PD-L1 immunofluorescence intensity": "0.951 ± 0.08"},
      {"smiles": "CCc1cccc(CC)c1NC(=O)CN(CC(=O)O)CC(=O)O", "note": "[Etifenin]", "surface PD-L1 immunofluorescence intensity": 1.05},
      {"smiles": "C[C@@H](O[C@H]1OCCN(Cc2n[nH]c(=O)[nH]2)[C@H]1c1ccc(F)cc1)c1cc(C(F)(F)F)cc(C(F)(F)F)c1", "note": "[Aprepitant]", "surface PD-L1 immunofluorescence intensity": 1.09},
      {"smiles": "C[C@@H](O[C@H]1OCCN(Cc2n[nH]c(=O)[nH]2)[C@H]1c1ccc(F)cc1)c1cc(C(F)(F)F)cc(C(F)(F)F)c1", "note": "[Aprepitant (MK-0869)]", "surface PD-L1 immunofluorescence intensity": 1.16},
      {"smiles": "Cc1cn(-c2cc(NC(=O)c3ccc(C)c(Nc4nccc(-c5cccnc5)n4)c3)cc(C(F)(F)F)c2)cn1", "note": "[Nilotinib (AMN-107)]", "surface PD-L1 immunofluorescence intensity": 0.984},
      {"smiles": "NC(=O)c1ccc(-c2nc(-c3ccccn3)c(-c3ccc4c(c3)OCO4)[nH]2)cc1", "surface PD-L1 immunofluorescence intensity": 0.951},
      {"smiles": "CCCNC(=O)Nc1ccc(Oc2ncnc3cc(OC)c(OC)cc23)cc1Cl", "surface PD-L1 immunofluorescence intensity": 1.06},
      {"smiles": "O=C(O)c1cc(=O)c2c(Cl)cc(Cl)cc2[nH]1", "note": "[5,7-Dichlorokynurenic acid]", "surface PD-L1 immunofluorescence intensity": 1.1},
      {"smiles": "CN(C)C(=O)C(=O)c1cn(C)c2cc(Cl)c(C(=O)N3CCC(Cc4ccc(F)cc4)CC3)cc12", "surface PD-L1 immunofluorescence intensity": 0.978},
      {"smiles": "CCN1C[C@H](C)n2c(c(O)c3c(=O)n(Cc4ccc(F)c(Cl)c4)nc(C(=O)NC)c32)C1=O", "surface PD-L1 immunofluorescence intensity": 1.09},
      {"smiles": "CC(N)CCCC(C)(C)O", "note": "(stereo not given) [Heptaminol hydrochloride]", "surface PD-L1 immunofluorescence intensity": 0.92},
      {"smiles": "CCCCC[C@H](O)/C=C/[C@@H]1[C@H]2C/C(=C/CCCC(=O)O)C[C@H]2C[C@H]1O", "note": "[Carbacyclin]", "surface PD-L1 immunofluorescence intensity": 0.977},
      {"smiles": "CN1CCCN=C1/C=C/c1cccc(O)c1", "note": "[Oxantel pamoate]", "surface PD-L1 immunofluorescence intensity": 0.925}
    ]}
  ]
}
